Values from PubChem BioAssay AID1259261 (Sanger Institute, 2017)
Screen: 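siRNA screen across the kinome for kinases that are essential and partners synergising with drugs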 (primary screen). System: HCC2998 human colorectal cancer cells. Reagents: siRNA pool against human genes. Conditions: anchor drugs BYL719 1 µM, cetuximab 5 µg/ml or trametinib 10 nM, each compared with DMSO vehicle. Measured: 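Viability as fraction of non-targeting control plus robust z-score without drug; synergy scores compare knock-down plus drug against each alone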. Reading the numbers: viability z-score, knock-down alone: higher = more viable cells than controls. Active means: 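a knock-down is called essential if its robust z-score without drug is under -3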. Calls: active = essential; inactive = no change.
The whole screen tested 794 reagents; shown is a part drawn at random. 10 of them (1.3%) were called active. 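Calls reflect knock-down alone without drug; synergy scores with BYL719, cetuximab or trametinib do not affect calls.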 A number with no mark means an inactive call. Not all columns of the deposit are shown. Reagent sequences are not shown. Not given: the amount of reagent, the time to read-out.

After knock-down of SKAP1, the record shows viability z-score, knock-down alone 0.403.
Knock-down of FLT4 resulted in: viability z-score, knock-down alone 0.618.
After knock-down of SRPK3 the results were viability z-score, knock-down alone 1.21.
For OBSCN the deposit lists viability z-score, knock-down alone 0.746.
With knock-down of HK3 the results were viability z-score, knock-down alone 1.21.
With knock-down of RPS6KA1 the results were viability z-score, knock-down alone 0.834.
Knock-down of MAP3K9 came out at: viability z-score, knock-down alone -1.84.
With knock-down of PAK6 the results were viability z-score, knock-down alone 1.21.
TRIO scored viability z-score, knock-down alone 0.00161.
FLT3 scored viability z-score, knock-down alone -0.851.
ULK4 gave viability z-score, knock-down alone -0.466.
Against PIK3CA the deposit lists viability z-score, knock-down alone 0.324.
Knock-down of DGKH gave: viability z-score, knock-down alone 0.746.

As entered above:
Under “viability z-score, knock-down alone”, ULK4 is entered as -0.466
TRIO, viability z-score, knock-down alone: 0.00161
Entry of MAP3K9 in “viability z-score, knock-down alone”: -1.84

Continued:
FYN gave viability z-score, knock-down alone 0.336.
For MAGI3, the entry reads viability z-score, knock-down alone -0.603.
Silencing of TWF1 came out at: viability z-score, knock-down alone 0.691.
Knock-down of PEAK1 resulted in: viability z-score, knock-down alone -0.161.
With knock-down of PRKCSH, the record shows viability z-score, knock-down alone 0.772.
Knock-down of IPMK came out at: viability z-score, knock-down alone 0.666.
Silencing of PKDCC gave: viability z-score, knock-down alone 0.842.
Depletion of PIP4K2C resulted in: viability z-score, knock-down alone -0.725.
CDK20 scored viability z-score, knock-down alone 0.552.
For CDK13, the values are viability z-score, knock-down alone 0.841.
After knock-down of TP53, the record shows viability z-score, knock-down alone -0.883.
After knock-down of TSSK2, the screen gave viability z-score, knock-down alone -2.05.
After knock-down of GNAS the results were viability z-score, knock-down alone -0.538.
For ROR2 the deposit lists viability z-score, knock-down alone 1.06.
For PIM1 the deposit lists viability z-score, knock-down alone -0.676.
